Results from US20230050038A1.
Results are given in words; binding and its absence hold for the method and conditions named. Some results given as binding are weak or reduced against the parent protein; the word gives no strength.

The chains behind the UniProt entries cited, without tags or fusion partners. Residues count along the entry.
UniProt P16234, residues 24-528: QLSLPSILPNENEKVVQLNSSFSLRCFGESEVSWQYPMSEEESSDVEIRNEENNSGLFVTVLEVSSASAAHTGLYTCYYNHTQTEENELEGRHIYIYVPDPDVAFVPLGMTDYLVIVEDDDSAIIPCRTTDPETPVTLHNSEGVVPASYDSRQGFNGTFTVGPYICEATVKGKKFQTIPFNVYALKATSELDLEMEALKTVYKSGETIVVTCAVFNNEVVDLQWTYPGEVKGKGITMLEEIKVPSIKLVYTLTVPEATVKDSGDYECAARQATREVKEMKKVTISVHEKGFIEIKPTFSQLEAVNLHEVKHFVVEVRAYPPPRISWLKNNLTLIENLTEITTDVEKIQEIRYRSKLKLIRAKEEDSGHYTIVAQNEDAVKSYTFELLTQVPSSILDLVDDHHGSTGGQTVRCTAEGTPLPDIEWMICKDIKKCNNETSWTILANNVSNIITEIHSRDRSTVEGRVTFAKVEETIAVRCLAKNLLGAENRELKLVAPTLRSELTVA
UniProt P01127, residues 82-190: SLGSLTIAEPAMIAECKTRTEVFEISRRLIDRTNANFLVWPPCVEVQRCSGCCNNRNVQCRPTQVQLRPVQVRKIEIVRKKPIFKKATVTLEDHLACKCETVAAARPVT

What was measured:
[1] = molecular target: VEGFR2 (recombinant, surface plasmon resonance) (UniProt P35968); assay: surface plasmon resonance
[2] = molecular target: PDGFRα soluble extracellular domain (UniProt P16234); assay: yeast surface display, soluble receptor ectodomain

| Substance | binding [1] | binding [2] |
| --- | --- | --- |
| PDGF-AB (recombinant) (from UniProt P04085 87-211; P01127 82-190) (ligand) | binds | – |
| PDGF-AA (recombinant) (from UniProt P04085 87-211) (ligand) | binds | – |
| PDGF-BB (recombinant, wild type) (from UniProt P01127 82-190) (ligand) | binds | – |
| PDGF-A mature polypeptide, displayed on the yeast surface (from UniProt P04085 87-211) (ligand) | – | binds |
